Results taken from PubChem BioAssay AID540256 (National Center for Advancing Translational Sciences (NCATS), 2011).
Screen size: about 300,000 compounds; about 3,700 (1.2%) were called active. The inconclusive results got no clear call from the source; some entries with a clear call stand among them for comparison. The call rests on the fitted dose curve; tested in HEK293 cells. A potency beside an inconclusive call is a rough fit, not a confirmed value.

Test: qHTS for Inhibitors of binding or entry into cells for Lassa Virus; further: nearly all actives have a fitted effect of over 50% in size
Details: Lassa virus pseudotype entry inhibition, cell reporter; activity change, negative = inhibition: at 37.9 µM (top of the series) unless noted
On the % scale 0 is the no-effect control and ±100 the full control effect; potency means the concentration at half of the fitted maximal effect.

| SMILES | Potency | activity change, negative = inhibition |
| --- | --- | --- |
| CCOc1cccc(C(=O)Nc2nc(-c3ccc(S(=O)(=O)N4CCOCC4)cc3)cs2)c1 | inconclusive: 35.5 µM [inhibitor, single point] |  |
| O=C(Cc1ccc(Cl)cc1)NCC(c1cccs1)S(=O)(=O)c1ccccc1 (centres undefined) | inconclusive: 35.5 µM [inhibitor, single point] |  |
| Cc1csc2sc(-c3ccnc(SCC(=O)NCc4ccccc4)n3)c(C)c12 | inconclusive: 7.08 µM [inhibitor, partial curve, poor fit] |  |
| COc1ccccc1C(=O)N/C(=C/c1ccc(Br)cc1)C(=O)NCCO | inconclusive: 0.58 µM [inhibitor, full curve, poor fit] |  |
| CCc1ccc2[nH]c(=O)c(CN(Cc3ccccc3OC)Cc3nnnn3Cc3ccco3)cc2c1 | inconclusive: 15.8 µM [inhibitor, partial curve, poor fit] |  |
| Cc1ccc(Oc2ccc(C(F)(F)F)cc2[N+](=O)[O-])c([N+](=O)[O-])n1 | inconclusive: 6.31 µM [activator, full curve, poor fit] |  |
| CCn1ccc2c(OCC(=O)Nc3ccc(C)c(Cl)c3)cccc2c1=O | inconclusive: 6.31 µM [inhibitor, single point] |  |
| COc1cccc(N2CCN(C(=O)CCSCc3ccccc3F)CC2)c1 | inactive |  |
| CCN(CC)c1cc(C)c2cc(NC(=O)c3cc(OC)cc(OC)c3)ccc2n1 | inconclusive: 35.5 µM [inhibitor, single point] |  |
| Cc1ccc(S(=O)(=O)N2CCC(c3nc4c(nnn4Cc4ccccc4)c(=O)[nH]3)CC2)cc1 | inconclusive: 12.6 µM [inhibitor, single point] |  |
| CC(=O)c1ccc2c(c1)C1C=CCC1C(c1ccc(S(=O)(=O)N3CCOCC3)cc1)N2 (centres undefined) | inconclusive: 25.1 µM [inhibitor, single point] |  |
| CCOC(=O)c1c(NC(=O)c2ccc(S(=O)(=O)N3CCOCC3)cc2)sc2c1CCN(C)C2 |  | inactive: -3.67% |
| CCN(CC)Cc1c(O)ccc2c(=O)c(-c3ccc4c(c3)OCCO4)coc12 |  | inactive: -3.53% |
| O=C(Nc1cccc2nsnc12)c1ccc2c(c1)OCCO2 | inconclusive: 0.651 µM [activator, full curve] |  |
| O=C1CCN(C(=O)c2cccs2)c2ccccc21 |  | inactive: -24.9% |
| O=S(=O)(Nc1cccnc1Cl)c1ccc2c(c1)OCCO2 | inconclusive: 10.3 µM [activator, partial curve, poor fit] |  |
| CC(C)(C)SCCNC(=O)/C=C/c1ccc([N+](=O)[O-])cc1 |  | inactive: -7.12% |
| O=C(CNc1cccc2ccccc12)N/N=C/C(Br)=C/c1ccccc1 | inconclusive: 16.4 µM [inhibitor, single point] |  |
| COC(=O)CCC(C)C1CCC2C3CCC4CC(O)CCC4(C)C3=CC(=O)C12C (centres undefined) | inconclusive: 2.51 µM [inhibitor, full curve, poor fit] |  |
| S=c1sc2c(Cl)ncnc2n1-c1ccccc1 | active: 23.1 µM |  |
| c1csc(-c2ncc3ccccn23)c1 |  | inactive: -0.816% |
| CC1CC1C(=O)Nc1ccc(S(=O)(=O)N2CCCCC2)cc1 (centres undefined) | inconclusive: 35.5 µM [inhibitor, partial curve, poor fit] |  |
| C=CCNC(=O)c1csc(-c2ccccc2)n1 | inconclusive: 29.1 µM [inhibitor, single point] |  |

| SMILES | Potency | activity change, negative = inhibition |
| --- | --- | --- |
| c1ccc(Cn2nnc3ccccc32)cc1 |  | inactive: 2.17% |
| Cc1ccc(C(C)C)c(OCC(=O)Nc2ccc(N3CCN(S(C)(=O)=O)CC3)cc2)c1 |  | inactive: 13.9% |
| O=C(CCCc1nc2ccccc2s1)NCc1ccccc1F |  | inactive: -9.83% |
| CSCCC(NC(=O)c1ccccc1Cl)C(=O)N1CCN(C(c2ccccc2)c2ccccc2)CC1 (centres undefined) | inconclusive: 12.6 µM [inhibitor, single point] |  |
| COc1cc(C2c3c(-c4cc(C)ccc4O)n[nH]c3C(=O)N2Cc2cccnc2)cc(OC)c1OC (centres undefined) | inconclusive: 7.08 µM [inhibitor, full curve, poor fit] |  |
| C=CCn1c(SCC(=O)Nc2ccc(OC)cc2)nnc1-c1cnccn1 | inconclusive: 5.62 µM [inhibitor, single point] |  |
| Cc1ccc2nc(NCCCO)[nH]c2c1 | inconclusive: 7.94 µM [activator, partial curve] |  |
| COc1cc(/C=N/Nc2ccc(Cl)c(C(=O)O)c2)ccc1OC(=O)c1ccco1 | inconclusive: 7.08 µM [inhibitor, full curve, poor fit] |  |
| CCN(CC)CC(O)CN(c1ccccc1)S(=O)(=O)c1ccc2ccccc2c1 (centres undefined) | inconclusive: 3.16 µM [inhibitor, single point] |  |
| CC1(C)Cc2nc(Cl)c(C#N)cc2CO1 |  | inactive: 6.25% |
| C(#CCN1CCCC1)CC(c1ccccc1)c1ccccc1 | inconclusive: 35.5 µM [inhibitor, single point] |  |
| CC(=O)Nc1ccc(CCCCc2ccc(NC(C)=O)cc2)cc1 | inconclusive: 10 µM [inhibitor, partial curve, poor fit] |  |
| Cc1cc(SCC(=O)N/N=C/c2ccc(O)c(O)c2)nc2ccccc12 | inconclusive: 11.2 µM [inhibitor, partial curve, poor fit] |  |
| Cc1ccc2nc(CSc3nnc(NC(=O)CC(C)C)s3)cc(=O)n2c1 |  | inactive: -0.222% [at 46.1 µM] |
| COC(=O)C1=C(C)NC(=O)NC1c1ccc(N2CCC(c3ccccc3)=N2)cc1 (centres undefined) |  | inactive: -10.7% |
| CNc1cc(N2CCCCCC2)ccc1[N+](=O)[O-] |  | inactive: -24.1% |
| N#Cc1ccc(/C=N/NC(=S)Nc2ccc(S(=O)(=O)N3CCOCC3)cc2)cc1 |  | inactive: -25.9% |
| CCCCNC(=O)N1CCOCCOCCN(C(=O)NCCCC)CCOCC1 |  | inactive: 1.74% |
| Cc1cc(N(CCCl)CCCl)ccc1C=NNC(=O)c1cccnc1 | inconclusive: 0.631 µM [inhibitor, full curve, poor fit] |  |
| Cc1nn(-c2ccccc2)c(Cl)c1C(=O)NCCCCNC(=O)c1c(C)nn(-c2ccccc2)c1Cl | inconclusive: 35.5 µM [inhibitor, single point] |  |
| Cc1csc(=Nc2ccccc2)n1CCCN1CCCC1=O |  | inactive: 1.12% |
| O=C(Nc1ccccn1)Nc1cccs1 |  | inactive: 12.7% |
| Cc1cccc(NC(=O)CSc2nnc(CNC(=O)c3cccc(C)c3)n2-c2ccccc2)c1 | inconclusive: 7.08 µM [inhibitor, full curve, poor fit] |  |

| SMILES | Potency | activity change, negative = inhibition |
| --- | --- | --- |
| CC(C)(C)NC(=O)NC(=O)COC(=O)Cn1c(C(F)(F)F)nc2ccccc21 | inconclusive: 1.83 µM [activator, partial curve, poor fit] |  |
| c1ccc(-c2nnsc2-c2nc3ccccc3[nH]2)cc1 |  | inactive: -0.0085% |
| CCN(CCN(C)C)C(=O)Cn1ncc2c([nH]c3ccc(C)cc32)c1=O | inconclusive: 6.31 µM [activator, full curve, poor fit] |  |
| CCOC(=O)N1CCN(C(=S)NC(=O)C23CC4CC(CC(C4)C2)C3)CC1 | inconclusive: 22.4 µM [inhibitor, partial curve, poor fit] |  |
| O=C(CN(Cc1ccc(Cl)cc1)C(=O)c1csnn1)NCc1ccc(F)cc1 | inconclusive: 1.26 µM [inhibitor, single point] |  |
| Cc1ccc(C(=O)c2cn(Cc3cc(C)ccc3C)c3nc(C)ccc3c2=O)cc1 | inconclusive: 17.8 µM [inhibitor, partial curve, poor fit] |  |
| O=C(CCn1nc(-c2ccc(Cl)cc2)ccc1=O)NCCCN1CCCCCC1 |  | inactive: -0.284% |
| CCn1c(/N=C/c2ccccc2O)nc2ccccc21 |  | inactive: 3.13% |
| COc1ccc(C(=O)/C(=C\c2ccco2)N2C=CC=CC2=C(C#N)C#N)cc1 | inconclusive: 3.55 µM [inhibitor, partial curve, poor fit] |  |
| Cc1ccc(C(=O)NCC(=O)Nc2cccc(S(=O)(=O)NC3=NCCCCC3)c2)cc1C | inconclusive: 1.78 µM [inhibitor, full curve, poor fit] |  |
| CCOC(=O)N1CCN(Cc2nc3cc(NC(=O)c4ccc(F)cc4)ccc3n2C(C)C)CC1 |  | inactive: -24.6% [at 46.1 µM] |
| Cc1c(C(C)(C)C)c(C=S)n2ccccc12 |  | inactive: -6.3% |
| COc1cccc(C2C(C(=O)c3cccs3)=C(O)C(=O)N2CCN2CCOCC2)c1OC (centres undefined) |  | inactive: 3.44% [at 46.1 µM] |
| O=C(CNC(c1ccccc1)c1ccccc1)Nc1ccccc1-c1ccccc1 | inconclusive: 35.5 µM [inhibitor, single point] |  |
| O=C(c1ccco1)N1CCN(C(=O)c2ccc(-c3cccc(C(F)(F)F)c3)o2)CC1 | active: 5.01 µM |  |
| CCOC(=O)CC(=O)CSc1nc2c(sc(=S)n2-c2ccc(C)c(C)c2)c(=O)[nH]1 | inconclusive: 8.91 µM [inhibitor, partial curve, poor fit] |  |
| COc1ccccc1NC(=O)N(Cc1ccccc1)c1ccccn1 |  | inactive: 6.82% |
| CCCCN(C(=O)CC1CCCC1)c1c(N)n(CC(C)C)c(=O)[nH]c1=O | inconclusive: 1.26 µM [inhibitor, single point] |  |
| C/C=C/COC(=O)c1[nH]c2c(c1C)C(=O)CC(c1ccco1)C2 (centres undefined) | inconclusive: 0.92 µM [inhibitor, full curve] |  |
| N#CCCN(C(=O)COC(=O)c1ccc(CNS(=O)(=O)c2ccc(F)c(Cl)c2)cc1)c1ccc(F)cc1 | inconclusive: 29.1 µM [inhibitor, partial curve, poor fit] |  |
| CCC(C)c1ccc(O)c(NC(=S)NC(=O)c2cccnc2)c1 (centres undefined) |  | inactive: 2.96% [at 46.1 µM] |
| COc1ccc(N2CCN(C(c3ccc4ncccc4c3)c3nnnn3C(C)(C)C)CC2)cc1 (centres undefined) | inconclusive: 25.1 µM [inhibitor, partial curve, poor fit] |  |
| Cc1ccc(C)c(NS(=O)(=O)c2cc(C(=O)Nc3ccccc3-c3ccccc3)ccc2C)c1 | inconclusive: 29.1 µM [inhibitor, single point] |  |

Part of the list above in order of heavy-atom count, rising:

| SMILES | Potency | activity change, negative = inhibition |
| --- | --- | --- |
| CCn1c(/N=C/c2ccccc2O)nc2ccccc21 |  | inactive: 3.13% |
| CCN(CCN(C)C)C(=O)Cn1ncc2c([nH]c3ccc(C)cc32)c1=O | inconclusive: 6.31 µM [activator, full curve, poor fit] |  |
| COc1ccc(C(=O)/C(=C\c2ccco2)N2C=CC=CC2=C(C#N)C#N)cc1 | inconclusive: 3.55 µM [inhibitor, partial curve, poor fit] |  |
| O=C(CCn1nc(-c2ccc(Cl)cc2)ccc1=O)NCCCN1CCCCCC1 |  | inactive: -0.284% |
| COc1cccc(C2C(C(=O)c3cccs3)=C(O)C(=O)N2CCN2CCOCC2)c1OC (centres undefined) |  | inactive: 3.44% [at 46.1 µM] |
| Cc1ccc(C)c(NS(=O)(=O)c2cc(C(=O)Nc3ccccc3-c3ccccc3)ccc2C)c1 | inconclusive: 29.1 µM [inhibitor, single point] |  |
